For 1 substance, binding results are on record in patent US20250236667A1, “ANTIBODIES TO MUTANT CALRETICULIN AND USES THEREOF” (CENTRAL ADELAIDE LOCAL HEALTH NETWORK INC, priority 2021, published 2025).

This assay addresses human CALR del61 frameshift mutant calreticulin (61 base pair deletion in CALR exon 9) (human) (UniProt P27797). Description: non-reducing Western blot of TpoR immunoprecipitates (homodimer). (In general: A western blot detects proteins with antibodies after separation by electrophoresis.)

Results are given in words; binding and its absence hold for the method and conditions named. Some results given as binding are weak or reduced against the parent protein; the word gives no strength.

In the case of “human CALR del61 frameshift mutant calreticulin (61 base pair deletion in CALR exon 9) (from UniProt P27797 18-417)”, the binding result was “binds”.
